In patent publication US20260284208A1, “SYSTEM” (Oxford University Innovation Limited, priority 2023, published 2026):
Further values from the same series stand in other lists.

Test system: library of 8,380 IKZF3 degrons (ZF-eGFP/mCherry reporter) in Jurkat cells
Assay: Pooled library screen (FACS, NGS, limma voom LogFC of positive vs negative read counts)
Format: cell-based, human
Procedure: A library of 8,380 IKZF3 degrons was cloned into pLVX-Sprout to create the eGFP/mCherry protein degradation reporter plasmid pool. A lentivirus pool was then generated using the Lenti-X lentiviral vector production method.
Jurkat cells were transduced at a multiplicity of infection of <0.3 with the lentivirus vector library in order to maximise the number of cells with a single integration. Transductions were carried out in 6 well TC-treated cell culture dishes (Falcon) with 3×10^6 cells per well. Cells were incubated for 2 days at 37° C. and 5% CO2 before the supernatant was removed and replaced with fresh media. 6 days post-transduction, mCherry+ cells were isolated via FACS using the FACS Aria Fusion (BD) in a buffer containing PBS (Gibco), 2 mM EDTA (Gibco), 25 mM HEPES (Sigma) and 1% BSA (Sigma). 8 days later, cells were treated with DMSO or a thalidomide analog for 18 hours at 37° C. and 5% CO2. mCherry+GFPlow and NOT(mCherry+GFPlow) cells were sorted by FACS using the FACS Aria Fusion (BD). DMSO treated cells were used to set the mCherry+GFPlow gate and dead cells were excluded from sorting by staining cells with 1 μg/mL DAPI (ThermoFisher). gDNA was isolated using the Maxwell RSC 48 (Promega). gDNA from cells that were unsorted and untreated were also isolated to determine the library representation on the day of compound treatment. Throughout the screen >600× coverage of the library was maintained. 3 biological replicates were carried out with a new transduction taking place each time.
A two-step PCR was used where the first PCR (PCR1) amplified the integrated degron sequence from gDNA and the second PCR (PCR2) added Illumina adaptors and barcodes to permit multiplexing. See Supp F for PCR1 and PCR2 primers. Q5 Hot Start High-Fidelity 2× Master Mix (New England Biolabs) was used for both PCRs. Sufficient gDNA was amplified in PCR1 in order to maintain >600× coverage and amplicons were purified using solid phase reversible immobilization (SPRI) beads (Beckman Coulter). Purified PCR1 products were analysed on the Tapestation 4200 (Agilent) to confirm purity prior to proceeding to PCR2. Sufficient PCR1 product was amplified in PCR2 in order to maintain >600× coverage and amplicons were run on a 2% agarose TAE gel. Target bands were excised and purified using the NucleoSpin Gel and PCR Clean-up Kit (Machery Nagel). Amplicons were analysed on the Tapestation 4200 and quantified using Qubit dsDNA HS kit (ThermoFisher). PCR products were pooled and sequenced as paired-reads on the NovaSeq (Illumina) using a SP2 200 cycles kit (Illumina).
Count distributions, percentage of read mapping, library coverage and replicate correlation per sample were assessed for QC purposes.
To carry out the library screen, we used the same plasmid construct as in our earlier flow cytometry assays, but pooling all 8,380 mutants together into one Jurkat population, ensuring a copy number of one plasmid per cell (FIG. 4B). […] These GFP-negative cells were then separated from the remaining GFP-positive population using fluorescence activated cell sorting (FACS). These two populations were then sequenced and the relative abundance of every mutant in both populations compared to provide a log FC value for each mutant sequence. This value indicated how frequently a sequence is observed in the GFP-negative population relative to the GFP-positive population, and therefore how effective a degron it is for that particular IMID compound.

Compound O=C1CCC(N2C(=O)c3ccc(N4CCOCC4)cc3C2=O)C(=O)N1 (stereo not drawn) [B03] has a B03_logFC (degron 1073 (SEQ ID NO 3542) 46F_47F_49E_50V_52G_53A_54Q_55F_67L) of 3.602, a B03_logFC (degron 1075 (SEQ ID NO 3516) 46F_47F_49E_50V_52G_53A_54S_55F_67L) of 3.66 and a B03_logFC (degron 1076 (SEQ ID NO 3490) 46F_47F_49E_50V_52G_53A_54T_55F_67L) of 3.737. It also gave a B03_logFC (degron 1077 (SEQ ID NO 3616) 46F_47F_49E_50V_52G_53A_54V_55F_67L) of 3.441, a B03_logFC (degron 1141 (SEQ ID NO 3618) 46F_47F_49P_50I_52G_53A_54C_55F_67L) of 3.436 and a B03_logFC (degron 1151 (SEQ ID NO 3517) 46F_47F_49P_50I_52G_53A_54N_55F_67L) of 3.658. It also gave a B03_logFC (degron 1152 (SEQ ID NO 3617) 46F_47F_49P_50I_52G_53A_54P_55F_67L) of 3.441, a B03_logFC (degron 1153 (SEQ ID NO 3513) 46F_47F_49P_50I_52G_53A_54Q_55F_67L) of 3.664 and a B03_logFC (degron 1156 (SEQ ID NO 3538) 46F_47F_49P_50I_52G_53A_54T_55F_67L) of 3.613. For the same compound, the B03_logFC (degron 1191 (SEQ ID NO 3579) 46F_47F_49P_50V_52G_53A_54N_55F_67L) was 3.511, the B03_logFC (degron 1193 (SEQ ID NO 3602) 46F_47F_49P_50V_52G_53A_54Q_55F_67L) was 3.472 and the B03_logFC (degron 1196 (SEQ ID NO 3567) 46F_47F_49P_50V_52G_53A_54T_55F_67L) was 3.538. It also gave a B03_logFC (degron 1512 (SEQ ID NO 3607) 46F_47H_49E_50I_52G_53A_54P_55F_67L) of 3.462, a B03_logFC (degron 1632 (SEQ ID NO 3637) 46F_47H_49P_50I_52G_53A_54P_55F_67L) of 3.386 and a B03_logFC (degron 1692 (SEQ ID NO 3604) 46F_47I_49D_50I_52G_53A_54P_55F_67L) of 3.464. For the same compound, the B03_logFC (degron 1752 (SEQ ID NO 3572) 46F_47I_49E_50I_52G_53A_54P_55F_67L) was 3.53, the B03_logFC (degron 1792 (SEQ ID NO 3599) 46F_47I_49E_50V_52G_53A_54P_55F_67L) was 3.484 and the B03_logFC (degron 1812 (SEQ ID NO 3622) 46F_47I_49N_50I_52G_53A_54P_55F_67L) was 3.429. It also gave a B03_logFC (degron 1872 (SEQ ID NO 3520) 46F_47I_49P_50I_52G_53A_54P_55F_67L) of 3.654, a B03_logFC (degron 1912 (SEQ ID NO 3454) 46F_47I_49P_50V_52G_53A_54P_55F_67L) of 3.937 and a B03_logFC (degron 2472 (SEQ ID NO 3619) 46F_47M_49E_50I_52G_53A_54P_55F_67L) of 3.432. The B03_logFC (degron 2512 (SEQ ID NO 3560) 46F_47M_49E_50V_52G_53A_54P_55F_67L) was 3.549, the B03_logFC (degron 2592 (SEQ ID NO 3593) 46F_47M_49P_50I_52G_53A_54P_55F_67L) was 3.489 and the B03_logFC (degron 2632 (SEQ ID NO 3548) 46F_47M_49P_50V_52G_53A_54P_55F_67L) was 3.588. It also gave a B03_logFC (degron 2952 (SEQ ID NO 3537) 46F_47Q_49E_50I_52G_53A_54P_55F_67L) of 3.615, a B03_logFC (degron 2992 (SEQ ID NO 3591) 46F_47Q_49E_50V_52G_53A_54P_55F_67L) of 3.49 and a B03_logFC (degron 3072 (SEQ ID NO 3541) 46F_47Q_49P_50I_52G_53A_54P_55F_67L) of 3.604. It also gave a B03_logFC (degron 3132 (SEQ ID NO 3571) 46F_47R_49D_50I_52G_53A_54P_55F_67L) of 3.531, a B03_logFC (degron 3192 (SEQ ID NO 3453) 46F_47R_49E_50I_52G_53A_54P_55F_67L) of 3.984 and a B03_logFC (degron 3232 (SEQ ID NO 3544) 46F_47R_49E_50V_52G_53A_54P_55F_67L) of 3.599. It also gave a B03_logFC (degron 3252 (SEQ ID NO 3596) 46F_47R_49N_50I_52G_53A_54P_55F_67L) of 3.487, a B03_logFC (degron 3312 (SEQ ID NO 3485) 46F_47R_49P_50I_52G_53A_54P_55F_67L) of 3.763 and a B03_logFC (degron 3352 (SEQ ID NO 3535) 46F_47R_49P_50V_52G_53A_54P_55F_67L) of 3.616. The B03_logFC (degron 3792 (SEQ ID NO 3615) 46F_47T_49P_50I_52G_53A_54P_55F_67L) was 3.444, the B03_logFC (degron 3912 (SEQ ID NO 3534) 46F_47V_49E_50I_52G_53A_54P_55F_67L) was 3.616 and the B03_logFC (degron 3952 (SEQ ID NO 3536) 46F_47V_49E_50V_52G_53A_54P_55F_67L) was 3.615. For the same compound, the B03_logFC (degron 4032 (SEQ ID NO 3507) 46F_47V_49P_50I_52G_53A_54P_55F_67L) was 3.683, the B03_logFC (degron 4080 (SEQ ID NO 3512) 46F_47W_49D_50I_52G_53A_54A_55F_67L) was 3.668 and the B03_logFC (degron 4081 (SEQ ID NO 3521) 46F_47W_49D_50I_52G_53A_54C_55F_67L) was 3.652. The B03_logFC (degron 4086 (SEQ ID NO 3632) 46F_47W_49D_50I_52G_53A_54H_55F_67L) was 3.407, the B03_logFC (degron 4093 (SEQ ID NO 3509) 46F_47W_49D_50I_52G_53A_54Q_55F_67L) was 3.676 and the B03_logFC (degron 4094 (SEQ ID NO 3471) 46F_47W_49D_50I_52G_53A_54R_55F_67L) was 3.824.
